The text below walks through data of US11643439B2 (SHAANXI MICOT TECHNOLOGY LIMITED COMPANY, priority 2015, dated 2023).

* marks the point of attachment. Fmoc = O=C(OCC1c2ccccc2-c2ccccc21)*

The nature of the data set: general procedure: Fmoc solid-phase peptide synthesis; 2-Cl-Trt resin; DIC/HOBt. The note with it: whole synthesis.
The mark [1] stands for this setting: scale of the general procedure 10 mmol.

As for Fmoc-GGGG-OH, the crude mass worked out at 7.2 g. For the same substance, under setting [1], the “crude purity (method not given)” value is reported as 95.6% and the crude yield stood at 96%.
